Assay results: the supplement of paper PMC10338343
± gives the standard deviation. The entries are a selection whose mix differs from that of the whole data set. Many of these values have a large error. The list shows a part of the results.

Assays:
[1] = test system: MIWI (PIWIL1) piRISC loaded with L1MC piRNA (30 nt); assay: pre-steady-state target cleavage rate (min^-1); higher = faster piRNA-guided slicing of the target; details: guide: L1MC piRNA 5'p-UAACUAAAUACUAUGCAAGCUGUAGGUCCU;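 note: 1 nM active piRISC with 0.1 nM target library at 33 °C single turnover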
Method in brief: (§1)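 Reactions were run for 0–8 or 0–960 min at 33 °C in HEPES–potassium acetate buffer, combining 1 nM active affinity-purified piRISC with one synthetic guide, […] transcribed, DNA-blocked target RNA library and, in some cases, 500 nM GTSF1 partner protein. Sequencing of uncleaved targets followed, with normalisation to depth and to weakly complementary targets. Three trials were pooled, k3 was capped at 0.0001 min^-1, and the pre-steady-state cleavage rate was taken from a burst-and-steady-state fit.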

[2] = test system: EfPiwi piRISC loaded with L1MC piRNA (26 nt); assay: pre-steady-state target cleavage rate (min^-1); guide: L1MC piRNA 5'p-UAACUAAAUACUAUGCAAGCUGUAGG; MIWI and MILI are mouse PIWI proteins and EfPiwi is from a freshwater sponge; tags in brackets are library labels; higher = faster piRNA-guided slicing of the target
Method in brief: as §1

[3] = auxiliary factor: none (no GTSF1)
[4] = auxiliary factor: 500 nM Ephydatia muelleri Gtsf1
[5] = auxiliary factor: none (no Gtsf1)
[6] = auxiliary factor: 500 nM mouse GTSF1

Sequence	pre-steady-state target cleavage rate [1, 3]	pre-steady-state target cleavage rate [2, 4]	pre-steady-state target cleavage rate [2, 5]	pre-steady-state target cleavage rate [1, 6]
UCCUGGAUGUGCUUGCAUAGUGAUUUAGUUA	0.00282 ± 0.0037	0.00141 ± 0.0078	0.000426 ± 0.02	–
UCCUGCUACAGCUUGCAUAGUAUUAUCUAA	0.0013 ± 0.0066	0.00395 ± 0.0027	0.000103 ± 0.03	–
UCCUGGAUGUCGAAGCUAUGUAUUUAGUUA	0.00048 ± 0.011	0.000224 ± 0.012	0.00028 ± 0.016	–
UCCUGGAUGUCGAUGCAUAGUAUAUUGUUA	–	0.000675 ± 0.0082	0.000302 ± 0.022	0.000312 ± 0.028
UCCUGGAUGUCGUAGCAUAGUAUUUACUUA	0.000684 ± 0.0097	0.000236 ± 0.016	0.000203 ± 0.03	–
UCCUGGAUGAGGAAGCAUAGUAUUUAGUUA	0.00111 ± 0.0061	0.00139 ± 0.0043	0.000394 ± 0.019	–
UCCUGGAUGUCGAACCUAAGUAUUUAGUUA	0.000408 ± 0.0076	0.000329 ± 0.012	0.000115 ± 0.041	–
UCCUGCUACAGCUUGCAUAGUUAUUACAAA	0.00134 ± 0.0076	0.000949 ± 0.0052	0.000178 ± 0.046	–
UCCUGGAUGUCGAAGCAUAGAUAUUUAGUUA	0.000653 ± 0.011	0.000269 ± 0.011	< 0.0001	–
UCCUGGAACAGGAUGCAUAGUAUUUAGUAA	0.00174 ± 0.0028	0.0055 ± 0.0028	0.000325 ± 0.013	–
UCCUCCUACAGCUUGCAUAGUAUUAUCUAA	0.00142 ± 0.0034	0.00413 ± 0.0033	0.000316 ± 0.015	–
UCCUGGAUGUCGUUGCAUAGCAUUUAGUUA	0.00114 ± 0.0071	0.000784 ± 0.0048	0.000335 ± 0.018	–
UCCUGCUACAGCUUGGAUAGUAUUUACAAA	0.000792 ± 0.0076	0.00306 ± 0.0026	< 0.0001	–
UCCUCCUACAGCAAGCAUAGUAUUUUCAAA	0.000945 ± 0.0075	0.00103 ± 0.0079	0.000294 ± 0.022	–
UCCUGGUACAGGAAGCAUAGUAUUUAGUUA	0.00172 ± 0.0029	0.00248 ± 0.0023	0.000383 ± 0.018	–
UCCUGGAUGUCGAAGCAUAGUAUUUACUAA	0.000175 ± 0.017	0.000202 ± 0.023	< 0.0001	–
UCCUGGAACAGCUUGCAAUCAUAAAUCAAA [g14:g23:cont:t1A]	0.000215 ± 0.016	0.000353 ± 0.011	0.00056 ± 0.02	–
UCCUGGAUGUCGAUGCAUAGAAUUUUGUUA	–	0.000137 ± 0.017	0.00019 ± 0.03	0.000232 ± 0.025
UCCUGGUACAGCUUGCAUAGUAUAAACAAA	0.00126 ± 0.0061	0.000856 ± 0.0054	0.000277 ± 0.026	–
UCCUGGAUCAGCUUGCAUAGAAUUUACAAA	0.00263 ± 0.0027	0.000793 ± 0.0035	0.000384 ± 0.015	–
UCCUGGAUGUCGAAGCAAAGUAUUUAGAUA	0.000561 ± 0.011	0.000639 ± 0.011	< 0.0001	–
UCCUGGAUGUCGAAGCAUACUUUUUAGUUA	0.000454 ± 0.012	0.000209 ± 0.013	0.000172 ± 0.03	–
UCCUGCUACAGCUUGCAUACAUUUUAGUUA	0.00111 ± 0.0095	0.000296 ± 0.01	0.000459 ± 0.01	–
UCCUGGUACAGGAUGCAUAGUAUUUAGUAA	0.00173 ± 0.003	0.00412 ± 0.002	0.000441 ± 0.016	–
UCCUGGAUGUCGAAGCAUAGUAAUUUAGUUA	0.00155 ± 0.0052	0.00016 ± 0.022	0.000108 ± 0.034	–
UCCUGCUACAGCUUGCAUAGUAUAUACAAA	0.000959 ± 0.0081	0.00238 ± 0.0022	0.000641 ± 0.015	–

Sequence	pre-steady-state target cleavage rate [1, 3]	pre-steady-state target cleavage rate [2, 4]	pre-steady-state target cleavage rate [2, 5]	pre-steady-state target cleavage rate [1, 6]
UCCUCCUACAGCUUGCAUACAUUUUAGUUA	0.000635 ± 0.0052	0.000531 ± 0.0077	0.000182 ± 0.021	–
UCCUGGAUGUCGAUGCAUAGUAGUUUAGUUA	0.000977 ± 0.0081	0.00123 ± 0.0067	0.000198 ± 0.056	–
UCCUGGAUGUCGAACGUAUGUAUAUUAGUUA	–	0.000289 ± 0.026	< 0.0001	0.000135 ± 0.038
UCCUGGAUGUCGAAGGAUAGUAUUAAGUUA	0.000224 ± 0.026	< 0.0001	< 0.0001	–
UCCUGGAUGUGCUAGCAUACUAUUUAGUUA	0.0025 ± 0.0032	0.000791 ± 0.011	0.000582 ± 0.013	–
UCCUGCUACAGCUUGUCAUAGUAUUUAGUUA	0.00205 ± 0.004	0.0131 ± 0.0037	0.00109 ± 0.0063	–
UCCUGGAUCAGCUUGCAUAGUAAAUUCAAA	0.000313 ± 0.0074	0.000708 ± 0.0046	0.000313 ± 0.018	–
UCCUGCUACAGCUACGAUAGUAUUUACAAA	0.000462 ± 0.015	0.000954 ± 0.0085	0.000288 ± 0.015	–
UCCUGGAACAGCUUCGUUAGUAUUUAGUUA	0.00213 ± 0.0023	0.000406 ± 0.0063	0.000147 ± 0.042	–
UCCUGGAUGAGUUGCAUAGUAUUUAGUUA	0.00178 ± 0.0023	0.00429 ± 0.002	0.000669 ± 0.011	–
UCCUGGAUGUCGAUGCAUAGUAAUUAGAUA	0.000772 ± 0.011	0.00156 ± 0.004	0.000201 ± 0.026	–
UCCUGGAUGUCGUUGCAUAUUAUUUAGUUA	0.00186 ± 0.0044	0.00212 ± 0.003	0.00061 ± 0.014	–
UCCUGGUACACGUUGCAUAGUAUUUAGAAA	0.00164 ± 0.0057	0.00151 ± 0.003	0.000424 ± 0.019	–
UCCUGCUACAGCUUGCAUAAGUAUUUAGUUA	0.000826 ± 0.011	0.00273 ± 0.0019	0.000528 ± 0.0084	–
UCCUGGAUGUCGAUGCAUAGUAAUUAGUUA	0.00107 ± 0.0068	0.00212 ± 0.0026	0.000391 ± 0.014	–
UCCUGGAUGUCGAAGCAUAGUAAUAAGUUA	0.00014 ± 0.045	0.000269 ± 0.0088	0.00032 ± 0.022	–
UCCUGGAUCAGCUACCAUAGUAUUUAGUAA	0.00114 ± 0.0057	0.00372 ± 0.0052	0.000212 ± 0.032	–
UCCUGGAUGUGCUUCCAUAGUAUUUAGAAA	0.000512 ± 0.01	0.00625 ± 0.0039	0.000431 ± 0.017	–
UCCUGCAACAGCUUGCUUAGUAUUUAGUUA	–	0.0143 ± 0.0036	0.00117 ± 0.007	1.4 ± 0.097
UCCUGGAUGACCUUGCAUAGUAUUAAGUUA	0.0028 ± 0.0037	0.003 ± 0.0051	0.000783 ± 0.015	–
UCCUGGAUGUCGAAGCAAACUAUUUAGUUA	0.00044 ± 0.013	0.000232 ± 0.0091	0.000162 ± 0.047	–
UCCUGGAUGUCCUUCAUAGUAUUUAGUUA	0.00162 ± 0.0033	0.00186 ± 0.0053	0.000333 ± 0.023	–
UCCUGGAUGUCGAUGCAUAGUAUUUGGUUA	0.00125 ± 0.0073	0.00119 ± 0.0044	0.000189 ± 0.041	–
UCCUGGAUGAGGAUGCAUAGUAUUUAGUAA	0.00202 ± 0.0028	0.00177 ± 0.0025	0.000309 ± 0.029	–
UCCUGGAUGUGCUUCGUUAGUAUUUAGAAA	0.000345 ± 0.018	0.000257 ± 0.011	0.000442 ± 0.018	–

Looked up one by one from the list above (three):
Sequence	pre-steady-state target cleavage rate [1, 3]	pre-steady-state target cleavage rate [2, 4]	pre-steady-state target cleavage rate [2, 5]	pre-steady-state target cleavage rate [1, 6]
UCCUGGAUGUCCUUCAUAGUAUUUAGUUA	0.00162 ± 0.0033	0.00186 ± 0.0053	0.000333 ± 0.023	–
UCCUGCUACAGCUUGUCAUAGUAUUUAGUUA	0.00205 ± 0.004	0.0131 ± 0.0037	0.00109 ± 0.0063	–
UCCUGGAUGUCGAUGCAUAGUAUUUGGUUA	0.00125 ± 0.0073	0.00119 ± 0.0044	0.000189 ± 0.041	–
